Measurements reported in article PMC11327391.
No constants are given. Whether binding was seen depends on the method and setting. Binding seen in cells or lysates may run through a third protein. Some binding calls cover weakened binding; strength is not graded here. For part of these data: Where a sequence is shown, tags or fusion partners need not be part of it.

Chains of the proteins cited; added tags and fusions are not shown.
UniProt P28741: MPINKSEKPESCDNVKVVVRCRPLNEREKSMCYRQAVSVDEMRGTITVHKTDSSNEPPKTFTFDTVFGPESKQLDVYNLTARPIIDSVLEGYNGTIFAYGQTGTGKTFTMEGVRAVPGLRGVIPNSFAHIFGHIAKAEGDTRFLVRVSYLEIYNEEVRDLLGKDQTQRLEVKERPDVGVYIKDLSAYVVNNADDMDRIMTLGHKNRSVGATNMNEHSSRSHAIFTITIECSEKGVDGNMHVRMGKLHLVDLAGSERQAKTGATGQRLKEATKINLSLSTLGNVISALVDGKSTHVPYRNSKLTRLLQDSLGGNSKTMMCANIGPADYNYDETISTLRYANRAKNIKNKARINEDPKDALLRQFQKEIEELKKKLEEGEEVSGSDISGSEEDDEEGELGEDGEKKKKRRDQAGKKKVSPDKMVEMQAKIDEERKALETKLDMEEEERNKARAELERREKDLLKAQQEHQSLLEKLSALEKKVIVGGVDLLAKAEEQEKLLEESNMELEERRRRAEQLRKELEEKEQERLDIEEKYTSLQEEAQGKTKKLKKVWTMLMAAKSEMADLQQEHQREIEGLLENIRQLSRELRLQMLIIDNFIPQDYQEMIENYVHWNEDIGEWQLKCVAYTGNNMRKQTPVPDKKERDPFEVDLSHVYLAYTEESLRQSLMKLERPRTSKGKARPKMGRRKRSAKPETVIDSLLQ

What was measured:
Assay in all cases: co-IP; Flag-Ccdc178 and a Myc-tagged partner co-transfected into HEK 293T cells; cell lysates immunoprecipitated with anti-FLAG or anti-MYC antibody
CFAP53 (mouse) = molecular target: T1, CFAP53 (mouse) (UniProt Q9D439)
T1 sequence: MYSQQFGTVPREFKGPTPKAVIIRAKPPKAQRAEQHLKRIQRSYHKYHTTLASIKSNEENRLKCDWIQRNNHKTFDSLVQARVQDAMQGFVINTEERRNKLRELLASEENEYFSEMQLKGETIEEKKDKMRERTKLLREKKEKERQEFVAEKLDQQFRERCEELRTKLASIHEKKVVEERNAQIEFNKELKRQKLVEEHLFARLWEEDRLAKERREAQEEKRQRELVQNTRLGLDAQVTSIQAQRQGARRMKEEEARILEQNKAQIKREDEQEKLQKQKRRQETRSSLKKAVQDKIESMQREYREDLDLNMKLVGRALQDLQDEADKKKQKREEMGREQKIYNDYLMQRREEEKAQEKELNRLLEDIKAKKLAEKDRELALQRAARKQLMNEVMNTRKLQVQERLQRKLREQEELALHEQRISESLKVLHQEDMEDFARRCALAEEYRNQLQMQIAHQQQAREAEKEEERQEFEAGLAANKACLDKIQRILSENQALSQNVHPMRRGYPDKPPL

[1] = molecular target: T2, intra-flagellar transport 88 (IFT88) (mouse) (UniProt Q61371)
T2 sequence: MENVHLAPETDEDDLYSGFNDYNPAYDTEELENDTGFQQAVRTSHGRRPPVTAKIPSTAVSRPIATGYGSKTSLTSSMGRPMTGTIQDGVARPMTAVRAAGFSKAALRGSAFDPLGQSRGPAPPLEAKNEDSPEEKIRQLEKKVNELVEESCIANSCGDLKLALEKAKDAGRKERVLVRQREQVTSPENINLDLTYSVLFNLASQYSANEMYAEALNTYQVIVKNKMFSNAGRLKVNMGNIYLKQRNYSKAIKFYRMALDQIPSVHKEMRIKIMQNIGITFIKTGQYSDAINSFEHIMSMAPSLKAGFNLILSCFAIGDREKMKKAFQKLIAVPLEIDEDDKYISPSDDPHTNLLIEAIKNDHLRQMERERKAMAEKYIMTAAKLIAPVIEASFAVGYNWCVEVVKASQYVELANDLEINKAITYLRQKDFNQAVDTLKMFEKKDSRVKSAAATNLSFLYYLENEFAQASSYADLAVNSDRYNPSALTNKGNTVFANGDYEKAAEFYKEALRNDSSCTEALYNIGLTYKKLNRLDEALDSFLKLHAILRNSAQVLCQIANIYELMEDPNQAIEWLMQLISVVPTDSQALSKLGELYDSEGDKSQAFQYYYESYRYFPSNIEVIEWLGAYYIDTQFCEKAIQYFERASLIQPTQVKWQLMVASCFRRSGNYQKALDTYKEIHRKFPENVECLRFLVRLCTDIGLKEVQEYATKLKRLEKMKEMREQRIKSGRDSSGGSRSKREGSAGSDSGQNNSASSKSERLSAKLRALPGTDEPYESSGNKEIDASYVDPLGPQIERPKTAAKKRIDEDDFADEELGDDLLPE

[2] = molecular target: kinesin family member 3A (KIF3A) (mouse) (UniProt P28741)

Measured: binding

B1: CCDC178 (protein, UniProt Q8CDV0 1-866)
chain: MPENEKEPAQPTTNEDALDTGKTCLQIKELKDKERALMLAENARMQGLSEFFFSRHEDKRLYESKSTNTEDVNKAIYFSYPSRRHSCTLVNIPKPCVNKMISHIEDVESKIQEHLTQFEASFEEWTSVTKDKEAGLDVSAPEKQVHPEKGKDEKCPELKKRMETLLSEAIHLIKSLETDRAEAEQALKQHKSRKKKISMKIDSWSIWKLQELPLAVQKEHENFSKINAELRSYLEDIALKVEQLQERKEKLEKANAKLQVDIDYMASHSVLLEKKRKQELGCLKERYHKKFEVMEKFRAIHEELKESVDKCEGAKARLKNMKVENEREIQEELINATSYEKELDKLSVLDAHYTTSIETVNLDIEGDEEAMNEVLRETQSTTNELENLKKTVDDLKRLFDQYCWRQRKYENEYLEAFSNFYSLKKTWDIELSNVSKDAKDLTIVYEAQSEENKRIQSEIQSITDDIEESIKKTAEMEEEVHTFVEMKMKNNNYLKQLYKQAYQVGAVYHLSRHKTEELEDKLADLKRIFKGREELLKKLTRGDIATGIEIQKRLYAIEETQFIEMQEFIRRQVLYNMALLEVEEQLKELEAEAVRIRYLHRQHSKMLHNIRKRKERVKKNVDATKKKLLKKSKKSRMELTRTEGKRSIIHEEIEIARGQTVALHEKCIELSKEIRIMNLERTNYEERLKKLQEEFFKLQFDREHVHGVYDHLMREKQYCEERIFEEERRFRRLIDMRKNTLKNIRKCQDDLLEENLRLAKEYQSAQLIFLKEKESYFNGYDRLLSLNFSLSDKKKLCQLQKRLDQKWQEYFRLMILFNKTKLAKFQGDSQNSIQKILAVQEESSSLMQHILDFFKSFPNSSCGEDD
binds: CFAP53 (mouse) | [1] | [2]
